Source: patent publication US20240010722A1

Columns and labels:
Insulin = experiment: polyreactivity ELISA on insulin coat
cyno MAdCAM (cynomolgus) = experiment: ELISA on MAdCAM coat (2 ug/ml), 0-500 nM antibody

binding (Insulin)	binding (cyno MAdCAM (cynomolgus))	Binder
no binding (tested: 100 nM)	–	MIAB169 (antibody, V domains shown) VH: EVQLLESGGGLVQPGGSLRLSCAASGFTFSDFWMHWVRQAPGKGLEWISYISGDSGYTNYADSVKGRFTISRDNSKNTLYLQMNSLRAEDTAVYYCARDRPYYYIMDVWGKGTTVTVSS VL: DIQMTQSPSSLSASVGDRVTITCRASQSVSRSLAWYQQKPGKAPKLLIYAASSLQSGVPSRFSGSGSGTDFTLTISSLQPEDFATYYCQQYKSYPVTFGQGTKVEIK
no binding (tested: 100 nM)	–	MIAB148 (antibody, V domains shown) VH: EVQLLESGGGLVQPGGSLRLSCAASGFTFSDFWMHWVRQAPGKGLEWISYISGDSGYTNYADSVKGRFTISRDNSKNTLYLQMNSLRAEDTAVYYCARDRPYYYYMDVWGKGTTVTVSS VL: DIQMTQSPSSLSASVGDRVTITCRASQSVSRSLNWYQQKPGKAPKLLIYAASSLQSGVPSRFSGSGSGTDFTLTISSLQPEDFATYYCQQYKSYPVTFGQGTKVEIK

Further lines, the binder ahead of its results:

Binder	binding (Insulin)	binding (cyno MAdCAM (cynomolgus))
MIAB170 (antibody, V domains shown) VH: EVQLLESGGGLVQPGGSLRLSCAASGFTFSDFWMHWVRQAPGKGLEWISYISGDSGYTNYADSVKGRFTISRDNSKNTLYLQMNSLRAEDTAVYYCARDRPYYYWMDVWGKGTTVTVSS VL: DIQMTQSPSSLSASVGDRVTITCRASQSVSRSLAWYQQKPGKAPKLLIYAASSLQSGVPSRFSGSGSGTDFTLTISSLQPEDFATYYCQQYKSYPVTFGQGTKVEIK	no binding (tested: 100 nM)	–
MIAB141 (antibody, V domains shown) VH: EVQLLESGGGLVQPGGSLRLSCAASGFTFSDFWMHWVRQAPGKGLEWISYISGDSGYTNYADSVKGRFTISRDNSKNTLYLQMNSLRAEDTAVYYCARDRPYYYYMDVWGKGTTVTVSS VL: DIQMTQSPSSLSASVGDRVTITCRASQSISSYLNWYQQKPGKAPKLLIYAASSLQSGVPSRFSGSGSGTDFTLTISSLQPEDFATYYCQQYKSYPVTFGQGTKVEIK	no binding (tested: 100 nM)	–
MIAB153 (antibody, V domains shown) VH: EVQLLESGGGLVQPGGSLRLSCAASGFTFSDFWMHWVRQAPGKGLEWISYISGDSGYTNYADSVKGRFTISRDNSKNTLYLQMNSLRAEDTAVYYCARDRPYYYYMDVWGKGTTVTVSS VL: DIQMTQSPSSLSASVGDRVTITCRASQSVSSSLNWYQQKPGKAPKLLIYAASSLQSGVPSRFSGSGSGTDFTLTISSLQPEDFATYYCQQYKSYPVTFGQGTKVEIK	no binding (tested: 100 nM)	–
MIAB151 (antibody, V domains shown) VH: EVQLLESGGGLVQPGGSLRLSCAASGFTFSDFWMHWVRQAPGKGLEWISYISGDSGYTNYADSVKGRFTISRDNSKNTLYLQMNSLRAEDTAVYYCARDRPYYYYMDVWGKGTTVTVSS VL: DIQMTQSPSSLSASVGDRVTITCRASQSISRSLNWYQQKPGKAPKLLIYAASSLQSGVPSRFSGSGSGTDFTLTISSLQPEDFATYYCQQYKSYPVTFGQGTKVEIK	no binding (tested: 100 nM)	–
MIAB126 (antibody, V domains shown) VH: EVQLLESGGGLVQPGGSLRLSCAASGFTFDDYAMHWVRQAPGKGLEWVASITSSSAFIDYADSVKGRFTISRDNSKNTLYLQMNSLRAEDTAVYYCARERVDWMSYFDLWGQGTLVTVSS VL: EIVMTQSPATLSVSPGERATLSCRASQGISNSYLAWYQQKPGQAPRLLIYGASTRATGIPARFSGSGSGTEFTLTISSLQSEDFAVYYCQQYYTYPPTFGQGTKVEIK	–	binds

Results are given in words; binding and its absence hold for the method and conditions named. For some of these results: Binding calls can cover weak binding; strength is not graded here.
